Reference: PubChem BioAssay AID2685 (National Center for Advancing Translational Sciences (NCATS), 2010)
This is one part of the list. The main result of the screen is listed elsewhere. These columns were measured beside it and carry no call. Compounds called inactive in the main read-out are mostly missing here. Potencies come from curve fits of mixed quality, noted in brackets.

Assay: qHTS Assay for Lipid Storage Modulators in Drosophila S3 Cells;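 on cell number change: cells counted by Cell Tracker Red CMTPX staining in the red channel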
Details: BODIPY lipid droplet fluorescence, 18-24 h; for cell number change: measured here: cell count max response, cells fed with added oleic acid
Outline: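 Drosophila S3 cells got compounds at several concentrations plus oleic acid (400 uM solution). Laser-scanning cytometry with 488 nm excitation read lipid droplets at 500-530 nm and cells at 575-640 nm. Percent activity was relative to 20 uM Triacsin C.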

[1] = measured here: lipid fluorescence (Fed channel) AC50, cells fed with added oleic acid
[2] = measured here: cell number channel AC50, cells fed with added oleic acid

Row | SMILES | cell number change [%] | AC50 [1] | AC50 [2]
1 | Cc1ccc(NC(=O)COC(=O)C2CC2C)c(S(=O)(=O)N2CCCCC2)c1 (stereo not given) | -16 | 16.4 µM [falling, single point] | –
2 | CC1Cc2ccccc2N1S(=O)(=O)c1cccc(C(=O)OCC(=O)NC2CCS(=O)(=O)C2)c1 (stereo not given) | -312 | 3.66 µM [falling, full curve, poor fit] | 18.4 µM [falling, partial curve]
3 | CN(c1ccc(C(=O)NCCSCc2ccc(Cl)cc2)cc1)S(=O)(=O)c1ccccc1 | 58.3 | – | 29.1 µM [rising, single point]
4 | COC(=O)c1ccc(NC(=O)N2CCCC(C(=O)c3ccccc3OC)C2)cc1 (stereo not given) | -34.7 | 1.3 µM [falling, full curve] | 1.64 µM [falling, full curve, poor fit]
5 | CC(=O)Nc1ccc(NC(=O)C(=O)NCC(c2ccco2)N2CCc3ccccc32)cc1 (stereo not given) | 83.2 | – | 29.1 µM [rising, single point]
6 | CC(C)(C)N1C(=O)c2ccc(C(=O)Nc3ccc(-c4nc5ccccc5[nH]4)cc3)cc2C1=O | -6.21 | 4.61 µM [falling, partial curve] | –
7 | CCCCc1cc(=O)oc2cc(O)ccc12 | -46 | 29.1 µM [falling, single point] | 9.2 µM [falling, partial curve, poor fit]
8 | O=C(COC(=O)C1=COCCO1)Nc1ccccc1Oc1ccccc1 | -180 | – | 29.1 µM [falling, single point]
9 | CCCCCCCCCCCCC(NC(C)=O)(C(=O)OCC)C(=O)OCC | 9.52 | 0.651 µM [falling, full curve] | –
10 | CCOc1ccc2[nH]c(=O)c(CN(Cc3ccco3)C(CC)c3nnnn3Cc3ccccc3)cc2c1 (stereo not given) | -23.7 | 0.517 µM [rising, full curve, poor fit] | –
11 | O=C1c2ccncc2C(=O)N1Cc1cccc(Cl)c1 | -62.6 | – | 25.9 µM [falling, partial curve, poor fit]
12 | N#Cc1c(N)c(C#N)c(-c2ccc3c(c2)OCO3)c2c1CCCC2 | 12.2 | – | –
13 | CCOC(=O)c1ccc(NC(=O)CSc2nnc(-c3cccs3)n2CC)cc1 | -24.7 | 29.1 µM [rising, single point] | –
14 | Cc1cccc(NC(=O)c2oc(=O)c3ccccc3c2-c2ccccc2)c1C | 47.6 | – | 1.16 µM [rising, partial curve, poor fit]
15 | O=[N+]([O-])c1cc(CN2CCCC2)c2cccnc2c1O | 3.38 | 3.66 µM [rising, single point] | –
16 | CCOC(=O)Cn1c2c(c(-c3ccccc3OC)cc1=O)CCCC2 | 15.8 | 6.51 µM [falling, single point] | –
17 | CCC(=O)c1ccc(OCC(O)CN(C)C2CCCCC2)cc1 (stereo not given) | -133 | 18.4 µM [falling, partial curve] | 18.4 µM [falling, partial curve]
18 | COC(CC(=O)NNC(=S)Nc1ccccc1)OC | -2.17 | 0.184 µM [falling, partial curve, poor fit] | –
19 | COc1ccc(C(=O)N2CCCC(O)C2)cc1OC1CCN(C(C)C)CC1 (stereo not given) | 6.36 | – | –
20 | CCOC(=O)N1CCN(C(=O)c2cccn3c(=O)c4cc(Br)ccc4nc23)CC1 | 0.86 | – | 0.116 µM [falling, full curve, poor fit]

Among those listed so far, these contain a Cl atom.
Row | SMILES | cell number change [%] | AC50 [1] | AC50 [2]
3 | CN(c1ccc(C(=O)NCCSCc2ccc(Cl)cc2)cc1)S(=O)(=O)c1ccccc1 | 58.3 | – | 29.1 µM [rising, single point]
11 | O=C1c2ccncc2C(=O)N1Cc1cccc(Cl)c1 | -62.6 | – | 25.9 µM [falling, partial curve, poor fit]

Next part.

Row | SMILES | cell number change [%] | AC50 [1] | AC50 [2]
21 | CC(C)c1nc(C#N)c(N2CCOCC2)o1 | -7.15 | 0.82 µM [falling, full curve, poor fit] | –
22 | Cc1cc(N/N=C/c2ccccc2)nc(NCc2ccccc2)n1 | -55.3 | 29.1 µM [falling, single point] | 32.6 µM [falling, partial curve, poor fit]
23 | CCOC(=O)C(Cc1ccc(N)cc1)N1C(=O)c2ccccc2C1=O (stereo not given) | -19.4 | 8.2 µM [falling, partial curve, poor fit] | –
24 | CCN(CC)S(=O)(=O)c1ccc(C)c(NC(=S)N2CCN(c3ccccn3)CC2)c1 | -13.2 | – | –
25 | Cc1nc(NC(=O)CSc2nc3cccnc3n2Cc2ccccc2)sc1C | -74.8 | 29.1 µM [falling, single point] | 29.1 µM [falling, single point]
26 | CC12CN(NC(=O)c3ccccc3F)C3(C#N)CC1CCC23C (stereo not given) | -22.9 | 0.517 µM [falling, partial curve, poor fit] | –
27 | CCCCCCCNC(=O)COc1ccc2c(c1)C(=O)CC(C)(C)O2 | -23.2 | 6.51 µM [falling, partial curve] | 0.651 µM [falling, full curve, poor fit]
28 | CC(C)(C)N1C(=O)[C@H]2[C@@H](c3ccc(Br)cc3)N3C(=O)N(c4cccc(F)c4)C(=O)[C@@]3(C)[C@H]2C1=O | 12 | 0.82 µM [falling, full curve, poor fit] | 0.517 µM [falling, full curve]
29 | COc1ccc(Cl)cc1N(CC(=O)N/N=C/c1ccc(OC(C)C)cc1)S(=O)(=O)c1ccc(C)c([N+](=O)[O-])c1 | 3.65 | 0.146 µM [rising, full curve, poor fit] | –
30 | COc1ccc(CCCc2nnc(SCC(=O)Nc3ncc(C)s3)o2)cc1 | -48.5 | – | –
31 | CCCCC1NC(=S)N(C2CCCCC2)C1=O (stereo not given) | -20.1 | – | –
32 | CN1C(=O)c2ccc(C(=O)Nc3ccccc3O)cc2C1=O | -2.11 | 13 µM [rising, partial curve] | –
33 | Cc1csc(NC(=O)CSCc2c(C)noc2C)n1 | 45.6 | – | 16.4 µM [rising, single point]
34 | Cc1c(C)n(CCC(=O)O)c2ccccc12 | -2.2 | – | 0.184 µM [falling, full curve, poor fit]
35 | Cc1ccc2oc(=O)n(CC(=O)N3CCOCC3)c2c1 | 11.6 | 0.517 µM [falling, full curve] | 0.58 µM [falling, full curve, poor fit]
36 | CNc1c(NS(=O)(=O)c2ccc(Br)cc2)c(=O)oc2ccccc12 | 23.5 | – | –
37 | COCCCNC(=O)Cn1ncc2ccsc2c1=O | -4.63 | 18.4 µM [falling, single point] | –
38 | Cc1ccc(S(=O)(=O)N2CCC(=O)N(C(COCc3cccc(C)c3)C(C)C)CC2)cc1 (stereo not given) | -15.1 | 8.2 µM [rising, partial curve] | –
39 | CSc1ncccc1C(=O)OCC(=O)NC1CCCCC1 | 8.23 | 6.51 µM [falling, single point] | –
40 | COc1ccccc1N1CCN(CC(O)COc2ccc3c(c2)OCO3)CC1 (stereo not given) | 53.1 | – | 29.1 µM [rising, single point]

Row | SMILES | cell number change [%] | AC50 [1] | AC50 [2]
41 | Cc1ccc(S(=O)(=O)N2CCN(C(=O)COC(=O)CSc3cc(C)ccc3C)CC2)c(C)c1 | 20.6 | 0.13 µM [rising, full curve] | 0.103 µM [rising, full curve, poor fit]
42 | C=CCNC(=O)CN1CCN(C(c2ccccc2)c2ccccc2)CC1 | -38.6 | – | 11.6 µM [falling, partial curve]
43 | COc1ccc(CCNC(=O)C(=O)NCc2ccccc2C)cc1OC | 76 | 29.1 µM [rising, single point] | –
44 | CC12C(=O)N(CCC(=O)O)C(=O)C1C1C=CC2C1 (stereo not given) | -13.8 | 23.1 µM [falling, partial curve] | 0.0517 µM [falling, full curve, poor fit]
45 | O=CNc1ccc(S(=O)(=O)NCc2ccccc2)cc1 | 39.1 | – | 16.4 µM [rising, single point]
46 | COc1cc(OC)c(C2C(C(=O)N3CCOCC3)=C(C)NC3=C2C(=O)CC(C)(C)C3)cc1OC (stereo not given) | -61 | 29.1 µM [falling, partial curve] | 29.1 µM [falling, single point]
47 | O=C(CSc1nnc(-c2ccccn2)o1)Nc1ccc(F)cc1 | 6.23 | – | –
48 | Nc1cc(C(F)(F)F)cc2c1SCC(=O)N2 | 10.3 | 0.103 µM [rising, full curve, poor fit] | –
49 | O=C(C1CCCO1)N1CCN(S(=O)(=O)c2ccc(F)cc2)CC1 (stereo not given) | -50 | – | 0.731 µM [falling, full curve]
50 | CCOC(=O)N1CCN(S(=O)(=O)c2cc(Br)cc3c2N(C(=O)CC)CC3)CC1 | 2.81 | 8.2 µM [falling, partial curve, poor fit] | –
51 | COc1cccc(/C=C2\SC(=S)N(CCC(=O)NC3C=CS(=O)(=O)C3)C2=O)c1 (stereo not given) | 9.37 | – | –
52 | Cn1cccc1C(=O)OCc1cc(-c2ccco2)on1 | -5.71 | 5.17 µM [rising, partial curve, poor fit] | –
53 | COc1ccc(C2(CNC(C)=O)CCCC2)cc1OC | -4.24 | 1.46 µM [falling, partial curve] | –
54 | CC(C)COC(=O)n1c(SCC(N)=O)nc2ccccc21 | 13.8 | 0.0731 µM [falling, partial curve, poor fit] | –
55 | CCN(CC(=O)NCc1cccs1)S(=O)(=O)c1ccccc1Cl | -3.79 | 0.58 µM [rising, full curve] | –
56 | CCc1ccccc1N/N=C(/C)c1c(O)cc(C)oc1=O | 60.4 | – | 7.31 µM [rising, partial curve]
57 | CC1(C)CC(=O)C(CC2=C(O)CC(C)(C)CC2=O)=C(O)C1 | -29.8 | 1.3 µM [falling, partial curve] | –
58 | CCOC(=O)Cc1nc(-c2cccc(C(F)(F)F)c2)no1 | 31.8 | 3.26 µM [rising, full curve] | –
